From US9675592B2, “Methods and compositions for bacteria infections” (priority 2013, dated 2017)

Chains of the proteins cited; added tags and fusions are not shown. Lines headed by an entry give the natural chain unless they say otherwise; changes in a name come on top. Residues count along the entry.
UniProt Q81ZH5: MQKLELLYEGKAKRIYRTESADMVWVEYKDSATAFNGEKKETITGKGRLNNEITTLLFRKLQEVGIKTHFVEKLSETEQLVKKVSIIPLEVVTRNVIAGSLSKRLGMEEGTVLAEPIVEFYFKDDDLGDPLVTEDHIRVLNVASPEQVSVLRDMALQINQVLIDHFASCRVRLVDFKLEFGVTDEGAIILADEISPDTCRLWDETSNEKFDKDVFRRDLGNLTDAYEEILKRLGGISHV
UniProt Q7A4R9: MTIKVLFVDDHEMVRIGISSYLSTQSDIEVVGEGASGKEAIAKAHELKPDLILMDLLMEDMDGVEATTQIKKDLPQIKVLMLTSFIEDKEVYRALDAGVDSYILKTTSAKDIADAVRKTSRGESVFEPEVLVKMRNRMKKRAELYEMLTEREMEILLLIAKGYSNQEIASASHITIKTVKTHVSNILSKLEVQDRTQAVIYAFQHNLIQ
UniProt Q99SZ7, 70-347: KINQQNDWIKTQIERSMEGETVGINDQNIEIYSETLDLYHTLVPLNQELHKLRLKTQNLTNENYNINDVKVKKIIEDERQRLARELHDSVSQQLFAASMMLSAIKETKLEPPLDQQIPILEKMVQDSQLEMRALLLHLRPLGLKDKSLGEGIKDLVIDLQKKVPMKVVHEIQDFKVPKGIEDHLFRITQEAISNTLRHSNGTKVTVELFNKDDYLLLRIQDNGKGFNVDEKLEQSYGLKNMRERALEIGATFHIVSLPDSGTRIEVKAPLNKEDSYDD

Tests used:
Format in all cases: binding
[1] = molecular target: PurC (unrelated protein, control) (Bacillus anthracis, UniProt Q81ZH5); details: read-out: KD PurC (control)
[2] = molecular target: VraR (Staphylococcus aureus, UniProt Q7A4R9); details: read-out: KD VraR
[3] = molecular target: cytoplasmic domain of VraS (VraS-C) (Staphylococcus aureus, UniProt Q99SZ7); details: read-out: KD VraS

Measured: Kd

CCN(CC)CCOc1ccc(C(=C(Cl)c2ccccc2)c2ccccc2)cc1 [Clo, Clomiphene]
> 100 µM: all assays above
